From article PMC10131819 come the findings set out here.

By UniProt entry, the sequences of proteins in these tests, tags left out.
UniProt Q92769: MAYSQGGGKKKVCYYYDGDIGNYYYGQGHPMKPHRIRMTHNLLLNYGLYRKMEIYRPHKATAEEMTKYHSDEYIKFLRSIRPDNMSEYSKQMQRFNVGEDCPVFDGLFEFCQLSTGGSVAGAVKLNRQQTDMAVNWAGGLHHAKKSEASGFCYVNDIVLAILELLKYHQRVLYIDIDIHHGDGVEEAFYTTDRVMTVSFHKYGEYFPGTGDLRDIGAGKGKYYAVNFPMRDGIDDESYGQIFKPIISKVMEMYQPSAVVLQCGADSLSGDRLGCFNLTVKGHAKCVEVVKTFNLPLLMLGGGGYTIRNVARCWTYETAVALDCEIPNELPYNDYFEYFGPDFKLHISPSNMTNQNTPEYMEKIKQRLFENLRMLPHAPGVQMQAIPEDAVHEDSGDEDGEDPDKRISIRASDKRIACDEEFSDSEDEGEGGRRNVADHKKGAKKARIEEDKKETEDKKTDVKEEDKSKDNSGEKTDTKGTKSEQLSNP
UniProt Q13547: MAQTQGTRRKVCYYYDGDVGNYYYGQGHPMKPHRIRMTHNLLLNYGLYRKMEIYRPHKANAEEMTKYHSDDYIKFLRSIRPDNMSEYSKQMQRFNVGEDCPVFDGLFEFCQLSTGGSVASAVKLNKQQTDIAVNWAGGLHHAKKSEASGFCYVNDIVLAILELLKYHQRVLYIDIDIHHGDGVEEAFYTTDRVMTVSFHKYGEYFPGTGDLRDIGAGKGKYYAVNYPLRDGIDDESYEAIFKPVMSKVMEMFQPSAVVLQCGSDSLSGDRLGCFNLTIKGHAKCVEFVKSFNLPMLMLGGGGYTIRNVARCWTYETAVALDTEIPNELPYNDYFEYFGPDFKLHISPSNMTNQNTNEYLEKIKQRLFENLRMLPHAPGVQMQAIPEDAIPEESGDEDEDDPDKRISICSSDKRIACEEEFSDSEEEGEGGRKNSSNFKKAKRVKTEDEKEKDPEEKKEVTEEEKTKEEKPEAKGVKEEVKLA

The target in this experiment is T1, ZEB1 (human (endogenous in MCF7/TamR)) (UniProt P37275).
T1 sequence: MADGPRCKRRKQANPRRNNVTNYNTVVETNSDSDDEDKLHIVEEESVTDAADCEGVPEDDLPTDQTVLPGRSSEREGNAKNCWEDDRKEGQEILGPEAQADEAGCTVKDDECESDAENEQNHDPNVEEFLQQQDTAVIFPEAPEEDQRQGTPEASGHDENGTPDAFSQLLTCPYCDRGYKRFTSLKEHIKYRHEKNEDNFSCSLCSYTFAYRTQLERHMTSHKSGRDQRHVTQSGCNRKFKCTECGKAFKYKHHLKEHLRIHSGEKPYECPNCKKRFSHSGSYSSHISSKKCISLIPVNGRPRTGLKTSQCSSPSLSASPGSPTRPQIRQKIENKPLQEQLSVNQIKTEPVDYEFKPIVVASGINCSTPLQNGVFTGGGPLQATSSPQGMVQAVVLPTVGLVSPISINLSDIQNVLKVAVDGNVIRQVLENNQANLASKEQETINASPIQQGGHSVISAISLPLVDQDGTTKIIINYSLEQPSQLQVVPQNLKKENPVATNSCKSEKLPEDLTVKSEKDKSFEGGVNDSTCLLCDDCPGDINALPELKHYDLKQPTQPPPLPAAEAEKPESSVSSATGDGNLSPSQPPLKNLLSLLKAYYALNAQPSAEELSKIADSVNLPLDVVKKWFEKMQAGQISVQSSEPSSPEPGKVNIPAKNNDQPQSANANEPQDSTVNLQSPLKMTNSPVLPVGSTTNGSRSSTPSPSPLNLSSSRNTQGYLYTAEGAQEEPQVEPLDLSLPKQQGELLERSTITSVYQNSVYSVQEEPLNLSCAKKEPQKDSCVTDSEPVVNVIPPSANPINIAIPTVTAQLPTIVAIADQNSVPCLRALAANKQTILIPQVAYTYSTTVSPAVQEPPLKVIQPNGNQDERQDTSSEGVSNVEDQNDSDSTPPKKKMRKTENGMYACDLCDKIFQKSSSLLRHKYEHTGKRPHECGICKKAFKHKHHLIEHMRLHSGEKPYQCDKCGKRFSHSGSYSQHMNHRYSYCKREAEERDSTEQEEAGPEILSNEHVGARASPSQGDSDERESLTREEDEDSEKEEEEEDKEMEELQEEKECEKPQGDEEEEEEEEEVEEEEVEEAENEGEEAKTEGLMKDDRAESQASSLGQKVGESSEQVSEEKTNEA
Nature of the experiment: co-IP; MCF7/TamR cells lysed in RIPA buffer; supernatant incubated overnight at 4 °C with anti-ZEB1 or normal control IgG antibody; protein A/G agarose beads; IP buffer with 0.1 mM EDTA, 50 mM NaCl, 50 mM Tris-HCl; western blot of the precipitate.

Results are given in words; binding and its absence hold for the method and conditions named. Binding seen in cells or lysates may run through a third protein. Some binding calls cover weakened binding; strength is not graded here.

As for “HDAC2 (from UniProt Q92769 1-488) (enzyme)”, the binding result was “binds”.
Turning to “HDAC1 (from UniProt Q13547 1-482) (enzyme)”, the binding result is “binds”.
